Reference: publication doi:10.1101/493791
These are yes or no findings as the source states them, for the method shown. In cells and extracts the contact can be indirect.

What was measured:
Flag-FBXW7γ (human) = test: co-IP
Flag-FBXW7β (human) = test: co-IP

B1: FBXO45 (endogenous) (protein, UniProt P0C2W1 1-286)
chain: MAAPAPGAGAASGGAGCSGGGAGAGAGSGSGAAGAGGRLPSRVLELVFSYLELSELRSCALVCKHWYRCLHGDENSEVWRSLCARSLAEEALRTDILCNLPSYKAKIRAFQHAFSTNDCSRNVYIKKNGFTLHRNPIAQSTDGARTKIGFSEGRHAWEVWWEGPLGTVAVIGIATKRAPMQCQGYVALLGSDDQSWGWNLVDNNLLHNGEVNGSFPQCNNAPKYQIGERIRVILDMEDKTLAFERGYEFLGVAFRGLPKVCLYPAVSAVYGNTEVTLVYLGKPLDG
Flag-FBXW7γ (human)
  binding: no binding
Flag-FBXW7β (human)
  binding: no binding
